Reference: patent publication US11065203B2, “Liposomal compositions and uses of same” (Technion Research & Development Foundation Limited, priority 2009, dated 2021)

B1: P36776 (protein, UniProt P36776 1-959, looked up)
chain: MAASTGYVRLWGAARCWVLRRPMLAAAGGRVPTAAGAWLLRGQRTCDASPPWALWGRGPAIGGQWRGFWEASSRGGGAFSGGEDASEGGAEEGAGGAGGSAGAGEGPVITALTPMTIPDVFPHLPLIAITRNPVFPRFIKIIEVKNKKLVELLRRKVRLAQPYVGVFLKRDDSNESDVVESLDEIYHTGTFAQIHEMQDLGDKLRMIVMGHRRVHISRQLEVEPEEPEAENKHKPRRKSKRGKKEAEDELSARHPAELAMEPTPELPAEVLMVEVENVVHEDFQVTEEVKALTAEIVKTIRDIIALNPLYRESVLQMMQAGQRVVDNPIYLSDMGAALTGAESHELQDVLEETNIPKRLYKALSLLKKEFELSKLQQRLGREVEEKIKQTHRKYLLQEQLKIIKKELGLEKDDKDAIEEKFRERLKELVVPKHVMDVVDEELSKLGLLDNHSSEFNVTRNYLDWLTSIPWGKYSNENLDLARAQAVLEEDHYGMEDVKKRILEFIAVSQLRGSTQGKILCFYGPPGVGKTSIARSIARALNREYFRFSVGGMTDVAEIKGHRRTYVGAMPGKIIQCLKKTKTENPLILIDEVDKIGRGYQGDPSSALLELLDPEQNANFLDHYLDVPVDLSKVLFICTANVTDTIPEPLRDRMEMINVSGYVAQEKLAIAERYLVPQARALCGLDESKAKLSSDVLTLLIKQYCRESGVRNLQKQVEKVLRKSAYKIVSGEAESVEVTPENLQDFVGKPVFTVERMYDVTPPGVVMGLAWTAMGGSTLFVETSLRRPQDKDAKGDKDGSLEVTGQLGEVMKESARIAYTFARAFLMQHAPANDYLVTSHIHLHVPEGATPKDGPSAGCTIVTALLSLAMGRPVRQNLAMTGEVSLTGKILPVGGIKEKTIAAKRAGVTCIVLPAENKKDFYDLAAFITEGLEVHFVEHYREIFDIAFPDEQAEALAVER
modifications: full-length
B2: P10515 (protein, UniProt P10515 1-647, looked up)
chain: MWRVCARRAQNVAPWAGLEARWTALQEVPGTPRVTSRSGPAPARRNSVTTGYGGVRALCGWTPSSGATPRNRLLLQLLGSPGRRYYSLPPHQKVPLPSLSPTMQAGTIARWEKKEGDKINEGDLIAEVETDKATVGFESLEECYMAKILVAEGTRDVPIGAIICITVGKPEDIEAFKNYTLDSSAAPTPQAAPAPTPAATASPPTPSAQAPGSSYPPHMQVLLPALSPTMTMGTVQRWEKKVGEKLSEGDLLAEIETDKATIGFEVQEEGYLAKILVPEGTRDVPLGTPLCIIVEKEADISAFADYRPTEVTDLKPQVPPPTPPPVAAVPPTPQPLAPTPSAPCPATPAGPKGRVFVSPLAKKLAVEKGIDLTQVKGTGPDGRITKKDIDSFVPSKVAPAPAAVVPPTGPGMAPVPTGVFTDIPISNIRRVIAQRLMQSKQTIPHYYLSIDVNMGEVLLVRKELNKILEGRSKISVNDFIIKASALACLKVPEANSSWMDTVIRQNHVVDVSVAVSTPAGLITPIVFNAHIKGVETIANDVVSLATKAREGKLQPHEFQGGTFTISNLGMFGIKNFSAIINPPQACILAIGASEDKLVPADNEKGFDVASMMSVTLSCDHRVVDGAVGAQWLAEFRKYLEKPITMLL
modifications: full-length
B3: Q9BS26 (protein, UniProt Q9BS26 1-406, looked up)
chain: MHPAVFLSLPDLRCSLLLLVTWVFTPVTTEITSLDTENIDEILNNADVALVNFYADWCRFSQMLHPIFEEASDVIKEEFPNENQVVFARVDCDQHSDIAQRYRISKYPTLKLFRNGMMMKREYRGQRSVKALADYIRQQKSDPIQEIRDLAEITTLDRSKRNIIGYFEQKDSDNYRVFERVANILHDDCAFLSAFGDVSKPERYSGDNIIYKPPGHSAPDMVYLGAMTNFDVTYNWIQDKCVPLVREITFENGEELTEEGLPFLILFHMKEDTESLEIFQNEVARQLISEKGTINFLHADCDKFRHPLLHIQKTPADCPVIAIDSFRHMYVFGDFKDVLIPGKLKQFVFDLHSGKLHREFHHGPDPTDTAPGEQAQDVASSPPESSFQKLAPSEYRYTLLRDRDEL
modifications: full-length
B4: O95571 (protein, UniProt O95571 1-254, looked up)
chain: MAEAVLRVARRQLSQRGGSGAPILLRQMFEPVSCTFTYLLGDRESREAVLIDPVLETAPRDAQLIKELGLRLLYAVNTHCHADHITGSGLLRSLLPGCQSVISRLSGAQADLHIEDGDSIRFGRFALETRASPGHTPGCVTFVLNDHSMAFTGDALLIRGCGRTDFQQGCAKTLYHSVHEKIFTLPGDCLIYPAHDYHGFTVSTVEEERTLNPRLTLSCEEFVKIMGNLNLPKPQQIDFAVPANMRCGVQTPTA
modifications: full-length
B5: Q5JRX3 (protein, UniProt Q5JRX3 1-1037, looked up)
chain: MWRCGGRQGLCVLRRLSGGHAHHRAWRWNSNRACERALQYKLGDKIHGFTVNQVTSVPELFLTAVKLTHDDTGARYLHLAREDTNNLFSVQFRTTPMDSTGVPHILEHTVLCGSQKYPCRDPFFKMLNRSLSTFMNAFTASDYTLYPFSTQNPKDFQNLLSVYLDATFFPCLRELDFWQEGWRLEHENPSDPQTPLVFKGVVFNEMKGAFTDNERIFSQHLQNRLLPDHTYSVVSGGDPLCIPELTWEQLKQFHATHYHPSNARFFTYGNFPLEQHLKQIHEEALSKFQKIEPSTVVPAQTPWDKPREFQITCGPDSFATDPSKQTTISVSFLLPDITDTFEAFTLSLLSSLLTSGPNSPFYKALIESGLGTDFSPDVGYNGYTREAYFSVGLQGIAEKDIETVRSLIDRTIDEVVEKGFEDDRIEALLHKIEIQMKHQSTSFGLMLTSYIASCWNHDGDPVELLKLGNQLAKFRQCLQENPKFLQEKVKQYFKNNQHKLTLSMRPDDKYHEKQAQVEATKLKQKVEALSPGDRQQIYEKGLELRSQQSKPQDASCLPALKVSDIEPTIPVTELDVVLTAGDIPVQYCAQPTNGMVYFRAFSSLNTLPEELRPYVPLFCSVLTKLGCGLLDYREQAQQIELKTGGMSASPHVLPDDSHMDTYEQGVLFSSLCLDRNLPDMMQLWSEIFNNPCFEEEEHFKVLVKMTAQELANGIPDSGHLYASIRAGRTLTPAGDLQETFSGMDQVRLMKRIAEMTDIKPILRKLPRIKKHLLNGDNMRCSVNATPQQMPQTEKAVEDFLRSIGRSKKERRPVRPHTVEKPVPSSSGGDAHVPHGSQVIRKLVMEPTFKPWQMKTHFLMPFPVNYVGECIRTVPYTDPDHASLKILARLMTAKFLHTEIREKGGAYGGGAKLSHNGIFTLYSYRDPNTIETLQSFGKAVDWAKSGKFTQQDIDEAKLSVFSTVDAPVAPSDKGMDHFLYGLSDEMKQAHREQLFAVSHDKLLAVSDRYLGTGKSTHGLAILGPENPKIAKDPSWIIQ
modifications: full-length
B6: P54886 (protein, UniProt P54886 1-795, looked up)
chain: MLSQVYRCGFQPFNQHLLPWVKCTTVFRSHCIQPSVIRHVRSWSNIPFITVPLSRTHGKSFAHRSELKHAKRIVVKLGSAVVTRGDECGLALGRLASIVEQVSVLQNQGREMMLVTSGAVAFGKQRLRHEILLSQSVRQALHSGQNQLKEMAIPVLEARACAAAGQSGLMALYEAMFTQYSICAAQILVTNLDFHDEQKRRNLNGTLHELLRMNIVPIVNTNDAVVPPAEPNSDLQGVNVISVKDNDSLAARLAVEMKTDLLIVLSDVEGLFDSPPGSDDAKLIDIFYPGDQQSVTFGTKSRVGMGGMEAKVKAALWALQGGTSVVIANGTHPKVSGHVITDIVEGKKVGTFFSEVKPAGPTVEQQGEMARSGGRMLATLEPEQRAEIIHHLADLLTDQRDEILLANKKDLEEAEGRLAAPLLKRLSLSTSKLNSLAIGLRQIAASSQDSVGRVLRRTRIAKNLELEQVTVPIGVLLVIFESRPDCLPQVAALAIASGNGLLLKGGKEAAHSNRILHLLTQEALSIHGVKEAVQLVNTREEVEDLCRLDKMIDLIIPRGSSQLVRDIQKAAKGIPVMGHSEGICHMYVDSEASVDKVTRLVRDSKCEYPAACNALETLLIHRDLLRTPLFDQIIDMLRVEQVKIHAGPKFASYLTFSPSEVKSLRTEYGDLELCIEVVDNVQDAIDHIHKYGSSHTDVIVTEDENTAEFFLQHVDSACVFWNASTRFSDGYRFGLGAEVGISTSRIHARGPVGLEGLLTTKWLLRGKDHVVSDFSEHGSLKYLHENLPIPQRNTN
modifications: full-length

Experiment: Proteomics analysis (trypsin digest, LC-MS/MS) of hMSC ghosts and derived CDLs, conditioned or unconditioned by PC3 medium
Set-up: species or system human
Details: LC-MS/MS peak area per protein; for Ratio of expression Cond. CDLs/Cond. Ghosts: CDLs derived from conditioned hMSCs versus conditioned ghosts; for Ratio of expression Cond Ghosts/Ghosts: hMSC ghosts conditioned by PC3 medium versus unconditioned ghosts

Molecule	Ratio of expression Cond. CDLs/Cond. Ghosts	Ratio of expression Cond Ghosts/Ghosts
B1	4%	100%
B2	4%	100%
B3	4%	100%
B4	4%	100%
B5	4%	100%
B6	4%	100%
